Assay results

From PubChem BioAssay record AID912 (NCATS, 2007).

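Uptake of anthrax lethal toxin into cultured cells, read by FRET (460/530 nm ratio) and reported from the 460 nm channel; the cell line is not named here.
Each compound was tested as a concentration series from about 0.0005 to 40 µM.
The number is the fitted AC50 of the 460 nm signal alone; lower values mean a more potent effect. A falling signal goes with compounds filed as inhibitors or cytotoxic, a rising one with activators or fluorescent compounds (inferred from the filed classes).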

Values are in µM.
Common to all entries: measured here: 460 nm channel.
Part of the compounds only, not a random draw; the main read-out is not listed here.
A potency from a partial, single-point or poor curve is only a rough figure.
The first word of each remark tells which way the curve ran; it can be opposite to the aim of the assay.

Compound	AC50 (µM)	curve
COc1cccc(-c2ccc3ncnc(N(C)Cc4ccco4)c3c2)c1	31.62	falling, single point
CC(=O)[C@@]1(O)Cc2c(O)c3c(c(O)c2[C@H](O[C@H]2C[C@H](N)[C@H](O)[C@H](C)O2)C1)C(=O)c1ccccc1C3=O	31.62	falling, single point
CCCC1C(C#N)=C(N)Oc2cc(C)n(C)c(=O)c21 (stereo not shown)	15.85	rising, single point
O=C(CSc1nnc(-c2ccco2)n1Cc1ccccc1)c1ccccc1	12.59	falling, single point
N#CC1=C(N)N=C(SCc2ccccc2)C(C(N)=O)C12CCCCC2 (stereo not shown)	5.012	falling, full curve
CCC(C)C(=O)Nc1cc(C(=O)OC)cc(C(=O)OC)c1 (stereo not shown)	31.62	rising, single point
O=C(Nc1ccc2c(c1)oc1ccccc12)c1ccc2c(c1)OCO2	0.3162	falling, full curve
C/C(NC1CCCCC1)=C(/C#N)C(=O)NCCN1CCOCC1	0.1585	falling, full curve, poor fit
CCOC(=O)CC(=O)CSc1ccc2nnc(-c3ccc(C)cc3)n2n1	10	rising, partial curve
CCS(=O)(=O)Nc1c(C(=O)OC)[nH]c2ccccc12	0.003981	falling, full curve, poor fit
CCCCOC(=O)c1ccccc1C(=O)OCc1ccccc1	5.012	falling, full curve, poor fit
COC(=O)c1[nH]c2cccc(OC)c2c1NC(=O)CCN1CCN(c2ccccc2OC)CC1	0.007943	rising, single point
CCSc1nnc(-c2cccc(S(=O)(=O)N(CC)CC)c2)n1Cc1ccccc1	31.62	falling, single point
Cc1ccc2nc3c(cc(C#N)c(=O)n3-c3nccs3)c(=O)n2c1	6.31	rising, partial curve
N#CCCn1c(=O)c(-c2cccs2)nc2cnc(OCc3ccccc3)nc21	10	rising, partial curve
CCC(c1nnnn1C(C)(C)C)N1CCN(C2CCCC2)CC1 (stereo not shown)	5.012	falling, single point
CC1=CC[C@@H]2[C@@H](C1)c1c(O)cc(CC#CCCCNS(C)(=O)=O)cc1OC2(C)C	31.62	falling, single point
Oc1cc(Cl)cc(Cl)c1Cl	15.85	falling, partial curve
CCOC(=O)C1=C[C@@]2(CC)CCCN3CCc4c(n1c1ccccc41)[C@H]32	19.95	falling, partial curve, poor fit
C[C@H](O)[C@H](O)[C@@H](O)c1cnc2nc(N)[nH]c(=O)c2n1	12.59	falling, single point
Cc1c[nH]c2cccc(OCC(O)CNC(C)(C)C)c12 (stereo not shown)	0.01	falling, full curve, poor fit
CC1CCC/C(=C\Nc2ccc3c(c2)OCO3)C1=O (stereo not shown)	0.3162	falling, full curve, poor fit
CCCC1C2CN(C(C)C)CC=C2C(C#N)=C(N)C1(C#N)C#N (stereo not shown)	10	rising, partial curve
CCOc1ccc2nc(NC3=NCN(CC4CCCO4)CN3)nc(C)c2c1 (stereo not shown)	0.01585	falling, full curve
Cc1cc(-n2c(=O)c(C#N)cc3c(=O)n4ccccc4nc32)no1	10	rising, partial curve
COC(=O)C1=C(NC(=O)c2ccc(C)c(C)c2)CCS1	3.981	rising, single point
CC(C)c1nc2oc3c(N4CCNCC4)ncnc3c2c2c1CCC2	10	falling, single point
COc1ccccc1CNc1nc(-c2cccc(C#N)c2)nc2ccccc12	10	falling, partial curve
Nc1nc(SCc2ccc(Cl)cc2)ns1	25.12	falling, single point
COC(=O)[C@H](CCSC)NC(=O)Nc1ccc(C)c(C)c1	19.95	falling, partial curve
O=C(C1CCCN(S(=O)(=O)c2cccc3cccnc23)C1)N1CCc2ccccc21 (stereo not shown)	25.12	falling, single point
Cc1ccccc1-c1nc(CN2CCC(C(=O)NCCCN3CCCC3)CC2)c(C)o1	6.31	falling, partial curve
N#Cc1cccc(-c2cncnc2NCc2ccccc2)c1	5.012	falling, single point
CCNc1ncc2nc(-c3ccc(OC)cc3)c(=O)n(C)c2n1	15.85	rising, partial curve
COc1ccc(-c2nc3cnc(N4CCN(C)CC4)nc3n(CCC#N)c2=O)cc1	10	rising, partial curve
O=C1C2=CC[C@H]3C(=O)N(Cc4ccc5c(c4)OCO5)C(=O)[C@@H]3[C@@H]2[C@H](O)[C@@H]2O[C@H]12	3.162	rising, partial curve
Cc1nc(-n2cc(F)c(=O)[nH]c2=O)c2nc(C)oc2n1	0.3981	falling, single point
CCCc1[nH]nc2c1C(c1cc(OC)ccc1F)C(C#N)=C(N)O2 (stereo not shown)	12.59	rising, partial curve
O=S(=O)(c1ccccc1)N1CCC2(CCCN(Cc3ccncc3)C2)CC1	3.162	rising, partial curve
O=c1c2ccccc2nc(-c2ccccc2)n1CCCN1CCOCC1	0.1	falling, full curve
COC(=O)[C@@]1(Cc2ccc(OC)cc2)[C@H]2c3cc(C(=O)N4CCCC4)n(Cc4cc(F)cc5c4OCOC5)c3C[C@H]2CN1C(=O)c1ccccc1	31.62	falling, single point
c1ccc2sc(-c3ccc4c(c3)OCO4)nc2c1	31.62	falling, partial curve
O=S(=O)(c1cccc2c(Cl)cccc12)N1CCCNCC1	31.62	falling, single point
C[C@H](Cc1ccc(O)c(O)c1)[C@@H](C)Cc1ccc(O)c(O)c1	15.85	falling, partial curve
O=C(Oc1nsnc1N1CCCCC1)N1CCOCC1	0.1259	falling, full curve, poor fit
O=C(CNC(=O)c1cccs1)NCCN1CCN(c2ccccc2F)CC1	0.03162	falling, full curve

The last 6 entries again:

Compound	AC50 (µM)	curve
COC(=O)[C@@]1(Cc2ccc(OC)cc2)[C@H]2c3cc(C(=O)N4CCCC4)n(Cc4cc(F)cc5c4OCOC5)c3C[C@H]2CN1C(=O)c1ccccc1	31.62	falling, single point
c1ccc2sc(-c3ccc4c(c3)OCO4)nc2c1	31.62	falling, partial curve
O=S(=O)(c1cccc2c(Cl)cccc12)N1CCCNCC1	31.62	falling, single point
C[C@H](Cc1ccc(O)c(O)c1)[C@@H](C)Cc1ccc(O)c(O)c1	15.85	falling, partial curve
O=C(Oc1nsnc1N1CCCCC1)N1CCOCC1	0.1259	falling, full curve, poor fit
O=C(CNC(=O)c1cccs1)NCCN1CCN(c2ccccc2F)CC1	0.03162	falling, full curve